Test system: control iNs
Assay: Survival of control iNs
Source text: Log-rank test, 100 iNs per group. […] Log-rank test, 100 iNs per group. […] Mean+/−s.e.m. Kruskal-Wallis Test. […] Log-rank test, 100 iNs per group. iNs quantified from 3 independent iN conversions per line.

Nc1ccc(C(=O)Nc2cccc(-c3nc(N4CCOCC4)c4oc5ncccc5c4n3)c2)cn1 [YM201636]
control iN survival: decreased control iN survival

Reference: patent publication US20230098111A1, “COMPOSITIONS AND METHODS TO TREAT NEUROLOGICAL DISEASES” (University of Southern California, priority 2020, published 2023)
